Experimental data: the supplement of paper PMC4604168 (melanoma cell lines)
Some of the results follow. Single values are uncertain, as repeats are few or missing.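 Cells were imaged in 1,536-well plates, and nuclei stained with an antibody against cleaved PARP were counted against all DNA-stained nuclei to give the apoptosis fraction. Screening doses were chosen to leave most cells alive, and resting and induced cleaved-PARP levels differ strongly between cell lines.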

Columns and labels:
Test in all cases: cleaved PARP positive nuclei fraction relative to DMSO control; melanoma cells; higher = more apoptosis
Conditions in all cases: library dose: low library concentration; 72 h
MZ2-MEL = system: MZ2-MEL
MeWo = system: MeWo
RPMI7951 = system: RPMI7951
RVH-421 = system: RVH-421
SkMel28 = system: SkMel28
SkMel2 = system: SkMel2
SkMel30 = system: SkMel30
SkMel5 = system: SkMel5
UACC257 = system: UACC257
UACC62 = system: UACC62

| SMILES | cleaved PARP positive nuclei fraction (MZ2-MEL) | cleaved PARP positive nuclei fraction (MeWo) | cleaved PARP positive nuclei fraction (RPMI7951) | cleaved PARP positive nuclei fraction (RVH-421) | cleaved PARP positive nuclei fraction (SkMel28) | cleaved PARP positive nuclei fraction (SkMel2) | cleaved PARP positive nuclei fraction (SkMel30) | cleaved PARP positive nuclei fraction (SkMel5) | cleaved PARP positive nuclei fraction (UACC257) | cleaved PARP positive nuclei fraction (UACC62) |
| --- | --- | --- | --- | --- | --- | --- | --- | --- | --- | --- |
| CC1(C)CCC(c2ccc(Cl)cc2)=C(CN2CCN(c3ccc(C(=O)NS(=O)(=O)c4ccc(N[C@H](CCN5CCOCC5)CSc5ccccc5)c(S(=O)(=O)C(F)(F)F)c4)cc3)CC2)C1 + O=S(=O)(c1ccccc1)N(CC(F)(F)F)c1ccc(C(O)(C(F)(F)F)C(F)(F)F)cc1 [T0901317] (first compound 0.4 µM, partner dose 1.4 µM) | 74.1% | 344% | 94.5% | 56.3% | 95.8% | 64.6% | 277% | 627% | 26% | 93.9% |
| CCCCCCCCc1ccc(CCC(N)(CO)CO)cc1 [fingolimod] + O=C(Nc1cccc(Cl)c1)Nc1ncc(CCNc2ncnc3ccsc23)s1 [SNS314] (first compound 2 µM, partner dose 0.0008 µM) | 62.6% | 55.1% | 111% | 73.8% | 55.2% | 108% | 28% | 74.1% | 371% | 209% |
| C[C@@H](N)c1ccc(C(=O)Nc2ccnc3[nH]ccc23)cc1 + COc1cc(N2CCC(N3CCN(C)CC3)CC2)ccc1Nc1ncc(Cl)c(Nc2ccccc2S(=O)(=O)C(C)C)n1 [NVP-TAE684] (first compound 0.4 µM, partner dose 0.08 µM) | 374% | 97.7% | 85.1% | 140% | 189% | 110% | 67% | 47% | 66.7% | 76.2% |
| CCN(CC)CCNC(=O)c1c(C)[nH]c(/C=C2\C(=O)Nc3ccc(F)cc32)c1C [sunitinib] + CCCCCCCCCCCC1=C(O)C(=O)C=C(O)C1=O [Embelin] (first compound 0.4 µM, partner dose 1.2 µM) | 100% | 139% | 58.2% | 62.8% | 127% | 84.6% | 32.7% | 70.1% | 30.5% | 101% |
| CS(=O)(=O)c1ccc(C(=O)Nc2ccc(Cl)c(-c3ccccn3)c2)c(Cl)c1 [vismodegib] + COC(=O)c1sccc1S(=O)(=O)Nc1ccc(Nc2ccccc2)cc1OC [GSK0660] (first compound 1 µM, partner dose 1 µM) | 168% | 110% | 53.1% | 35.2% | 110% | 110% | 76.9% | 80.4% | 121% | 104% |
| CC(=O)O[C@@]12CO[C@@H]1C[C@H](O)[C@@]1(C)C(=O)[C@H](O)C3=C(C)[C@@H](OC(=O)[C@H](O)[C@@H](NC(=O)OC(C)(C)C)c4ccccc4)C[C@@](O)([C@@H](OC(=O)c4ccccc4)[C@H]21)C3(C)C [Docetaxel] + C[C@@H]1CCN(C(=O)CC#N)C[C@@H]1N(C)c1ncnc2[nH]ccc12 [CP690550] (first compound 0.0001 µM, partner dose 1 µM) | 1040% | 248% | 82.8% | 333% | 282% | 711% | 717% | 255% | 1440% | 488% |
| CN(c1ncccc1CNc1nc(Nc2ccc3c(c2)CC(=O)N3)ncc1C(F)(F)F)S(C)(=O)=O + CN(NC(=O)CC(=O)NN(C)C(=S)c1ccccc1)C(=S)c1ccccc1 [STA4783] (first compound 0.08 µM, partner dose 0.006 µM) | 100% | 99.6% | 109% | 75.1% | 256% | 75.9% | 64.5% | 695% | 74.3% | 234% |
| CC(=O)O[C@@]12CO[C@@H]1C[C@H](O)[C@@]1(C)C(=O)[C@H](O)C3=C(C)[C@@H](OC(=O)[C@H](O)[C@@H](NC(=O)OC(C)(C)C)c4ccccc4)C[C@@](O)([C@@H](OC(=O)c4ccccc4)[C@H]21)C3(C)C [Docetaxel] + COc1ccc(-c2ccc3c(N4CCOCC4)nc(N4C[C@@H](C)O[C@@H](C)C4)nc3n2)cc1CO [KU0063794] (first compound 0.0001 µM, partner dose 0.02 µM) | 930% | 400% | 166% | 214% | 335% | 477% | 178% | 109% | 354% | 461% |
| Cn1sc(=O)n(Cc2ccccc2)c1=O + CCN(CC)CCCCNc1ncc2cc(-c3cc(OC)cc(OC)c3)c(NC(=O)NC(C)(C)C)nc2n1 [PD173074] (first compound 0.4 µM, partner dose 0.1 µM) | 68.9% | 48.8% | 68.3% | 41.1% | 95.5% | 29.5% | 334% | 72.5% | 185% | 129% |
| CC1(C)CCC(c2ccc(Cl)cc2)=C(CN2CCN(c3ccc(C(=O)NS(=O)(=O)c4ccc(N[C@H](CCN5CCOCC5)CSc5ccccc5)c(S(=O)(=O)C(F)(F)F)c4)cc3)CC2)C1 + O=C(O)c1ccc(-c2c[nH]c3ncc(-c4ccccc4)cc23)cc1C1CCCC1 [GSK650394] (first compound 0.4 µM, partner dose 0.16 µM) | 397% | 863% | 152% | 47.3% | 22.7% | 192% | 401% | 510% | 143% | 44.5% |
| COc1ccc(C2=N[C@@H](c3ccc(Cl)cc3)[C@@H](c3ccc(Cl)cc3)N2C(=O)N2CCNC(=O)C2)c(OC(C)C)c1 [Nutlin-3] + C[C@@H]1CCN(C(=O)CC#N)C[C@@H]1N(C)c1ncnc2[nH]ccc12 [CP690550] (first compound 0.1 µM, partner dose 1 µM) | 63.2% | 48% | 84.9% | 51.9% | 269% | 53.4% | 64.8% | 75.9% | 80.3% | 136% |
| COc1ccc(C2=N[C@@H](c3ccc(Cl)cc3)[C@@H](c3ccc(Cl)cc3)N2C(=O)N2CCNC(=O)C2)c(OC(C)C)c1 [Nutlin-3] + COc1ccc2c(c1)CCC1C2CCC2(C)C(NCCCCCCN3C(=O)C=CC3=O)CCC12 [U73122] (first compound 0.1 µM, partner dose 0.4 µM) | 229% | 82.6% | 105% | 82.9% | 226% | 110% | 89.7% | 83.4% | 215% | 61% |
| CCCCCCCCc1ccc(CCC(N)(CO)CO)cc1 [fingolimod] + NCC(=O)Nc1ccc(-n2nc(C(F)(F)F)cc2-c2ccc3c(ccc4ccccc43)c2)cc1 [OSU03012] (first compound 2 µM, partner dose 1 µM) | 165% | 273% | 37.6% | 67.8% | 159% | 217% | 200% | 305% | 125% | 62.3% |
| CC1(C)CCC(c2ccc(Cl)cc2)=C(CN2CCN(c3ccc(C(=O)NS(=O)(=O)c4ccc(N[C@H](CCN5CCOCC5)CSc5ccccc5)c(S(=O)(=O)C(F)(F)F)c4)cc3)CC2)C1 + Oc1nc(-c2ccc(C(F)(F)F)cc2)nc2c1CSCC2 [XAV939] (first compound 0.4 µM, partner dose 2 µM) | 180% | 298% | 92.2% | 52.1% | 39.4% | 175% | 335% | 340% | 131% | 113% |
| Cn1cnc2c(F)c(Nc3ccc(Br)cc3Cl)c(C(=O)NOCCO)cc21 [selumetinib] + Oc1cc(-c2nc(-c3ccccc3)[nH]c2-c2ccncc2)ccc1Cl [L779450] (first compound 0.015 µM, partner dose 0.2 µM) | 45% | 66.4% | 79.1% | 114% | 440% | 299% | 44.5% | 82.2% | 61.7% | 186% |
| CN(c1ncccc1CNc1nc(Nc2ccc3c(c2)CC(=O)N3)ncc1C(F)(F)F)S(C)(=O)=O + CC(C)CCN1c2nc(Nc3cc(F)c(O)c(F)c3)ncc2N(C)C(=O)C1C [BID1870] (first compound 0.08 µM, partner dose 0.2 µM) | 123% | 40.6% | 121% | 26.7% | 99.1% | 168% | 186% | 263% | 209% | 119% |
| CN(c1ncccc1CNc1nc(Nc2ccc3c(c2)CC(=O)N3)ncc1C(F)(F)F)S(C)(=O)=O + Cn1cncc1[C@@](N)(c1ccc(Cl)cc1)c1ccc2c(c1)c(-c1cccc(Cl)c1)cc(=O)n2C [tipifarnib] (first compound 0.08 µM, partner dose 0.01 µM) | 61.6% | 96.5% | 199% | 107% | 127% | 156% | 60.7% | 97.6% | 86.7% | 77.8% |
| Cn1sc(=O)n(Cc2ccccc2)c1=O + O=C(Nc1cccc(Cl)c1)Nc1ncc(CCNc2ncnc3ccsc23)s1 [SNS314] (first compound 0.4 µM, partner dose 0.0008 µM) | 101% | 101% | 199% | 29.8% | 37.1% | 128% | 179% | 179% | 96.6% | 38.6% |
| CCN(CC)CCNC(=O)c1c(C)[nH]c(/C=C2\C(=O)Nc3ccc(F)cc32)c1C [sunitinib] + Cc1cc(N2CCOCC2)cc2[nH]c(-c3c(NC[C@@H](O)c4cccc(Cl)c4)cc[nH]c3=O)nc12 [BMS536924] (first compound 0.4 µM, partner dose 0.2 µM) | 190% | 136% | 99.5% | 94.5% | 50.9% | 151% | 83.2% | 74.7% | 155% | 141% |
| C[C@@H](N)c1ccc(C(=O)Nc2ccnc3[nH]ccc23)cc1 + Oc1nc(-c2ccc(C(F)(F)F)cc2)nc2c1CSCC2 [XAV939] (first compound 0.4 µM, partner dose 2 µM) | 175% | 110% | 153% | 394% | 325% | 79.2% | 44% | 176% | 180% | 188% |
| C[C@]1(O)C[C@@H](c2nc(-c3ccc4ccc(-c5ccccc5)nc4c3)c3c(N)nccn32)C1 + O=S(=O)(c1ccccc1)N(CC(F)(F)F)c1ccc(C(O)(C(F)(F)F)C(F)(F)F)cc1 [T0901317] (first compound 0.4 µM, partner dose 1.4 µM) | 43.9% | 37.6% | 51.3% | 29.1% | 283% | 88.8% | 95.3% | 85.5% | 324% | 136% |

Another view of part of the listing above:
SMILES	cleaved PARP positive nuclei fraction (MZ2-MEL)	cleaved PARP positive nuclei fraction (MeWo)	cleaved PARP positive nuclei fraction (RPMI7951)	cleaved PARP positive nuclei fraction (RVH-421)	cleaved PARP positive nuclei fraction (SkMel28)	cleaved PARP positive nuclei fraction (SkMel2)	cleaved PARP positive nuclei fraction (SkMel30)	cleaved PARP positive nuclei fraction (SkMel5)	cleaved PARP positive nuclei fraction (UACC257)	cleaved PARP positive nuclei fraction (UACC62)
CC1(C)CCC(c2ccc(Cl)cc2)=C(CN2CCN(c3ccc(C(=O)NS(=O)(=O)c4ccc(N[C@H](CCN5CCOCC5)CSc5ccccc5)c(S(=O)(=O)C(F)(F)F)c4)cc3)CC2)C1 + O=S(=O)(c1ccccc1)N(CC(F)(F)F)c1ccc(C(O)(C(F)(F)F)C(F)(F)F)cc1 [T0901317] (first compound 0.4 µM, partner dose 1.4 µM)	74.1%	344%	94.5%	56.3%	95.8%	64.6%	277%	627%	26%	93.9%
CC(=O)O[C@@]12CO[C@@H]1C[C@H](O)[C@@]1(C)C(=O)[C@H](O)C3=C(C)[C@@H](OC(=O)[C@H](O)[C@@H](NC(=O)OC(C)(C)C)c4ccccc4)C[C@@](O)([C@@H](OC(=O)c4ccccc4)[C@H]21)C3(C)C [Docetaxel] + COc1ccc(-c2ccc3c(N4CCOCC4)nc(N4C[C@@H](C)O[C@@H](C)C4)nc3n2)cc1CO [KU0063794] (first compound 0.0001 µM, partner dose 0.02 µM)	930%	400%	166%	214%	335%	477%	178%	109%	354%	461%
Cn1sc(=O)n(Cc2ccccc2)c1=O + CCN(CC)CCCCNc1ncc2cc(-c3cc(OC)cc(OC)c3)c(NC(=O)NC(C)(C)C)nc2n1 [PD173074] (first compound 0.4 µM, partner dose 0.1 µM)	68.9%	48.8%	68.3%	41.1%	95.5%	29.5%	334%	72.5%	185%	129%
CN(c1ncccc1CNc1nc(Nc2ccc3c(c2)CC(=O)N3)ncc1C(F)(F)F)S(C)(=O)=O + CC(C)CCN1c2nc(Nc3cc(F)c(O)c(F)c3)ncc2N(C)C(=O)C1C [BID1870] (first compound 0.08 µM, partner dose 0.2 µM)	123%	40.6%	121%	26.7%	99.1%	168%	186%	263%	209%	119%
C[C@@H](N)c1ccc(C(=O)Nc2ccnc3[nH]ccc23)cc1 + Oc1nc(-c2ccc(C(F)(F)F)cc2)nc2c1CSCC2 [XAV939] (first compound 0.4 µM, partner dose 2 µM)	175%	110%	153%	394%	325%	79.2%	44%	176%	180%	188%
C[C@]1(O)C[C@@H](c2nc(-c3ccc4ccc(-c5ccccc5)nc4c3)c3c(N)nccn32)C1 + O=S(=O)(c1ccccc1)N(CC(F)(F)F)c1ccc(C(O)(C(F)(F)F)C(F)(F)F)cc1 [T0901317] (first compound 0.4 µM, partner dose 1.4 µM)	43.9%	37.6%	51.3%	29.1%	283%	88.8%	95.3%	85.5%	324%	136%
